Reference: patent publication US9468209B2, “Method for eradicating weeds with derivatives of 3-acetyl-5-sec-butyl-4-hydroxy-3-pyrrolin-2-one” (priority 2012, dated 2016)
For some assays here: At least one read-out could not be matched to a standard name with certainty. Some entries share one result that the patent states for a list of compounds.

Assays:
Format in all cases: biochemical
[1] = test system: fluorescence of chlorophyll; assay: Fluorescence of chlorophyll of treated Crofton weed leaves; conditions: 50 μg/mL, strong light 12 hours
Procedure: (§1) Compounds 10-57 were dissolved in small amount of methanol. The solutions were then diluted with distilled water to a concentration of 50 μg/mL. A mixture of methanol and water in the same ratio as the sample solution was also prepared and used as control in the experiment. The healthy leaves of Crofton weed were washed in water for 30 minutes and then rinsed with distilled water. The clean and tissue dried leaves were placed in petri dish with the back-side of the leaves facing up. Wet filter paper was also placed in the in petri dish for moisture control. Water, methanol and chemical solutions of the analogues were applied to the back-side of each leaf. Test sample was then placed in vacuum chamber at 25° C. for 15 min followed by exposure to the strong light (400 μM m^−2 s^−1) for 12 hours. The leaf sample went through a series of test, and the Hill reaction rate, the electron transfer activity and fluorescence of chlorophyll were measured. Four leaves were used for each treatment and each test was repeated three times.

photosystem I = assay: Electron transfer of photosystem I in treated Crofton weed leaves; conditions: 50 μg/mL
Hill reaction = Hill reaction activity of treated Crofton weed leaves; conditions: 50 μg/mL
Procedure: as §1

photosystem II = assay: PSII oxygen evolution / electron transfer activity of treated Crofton weed leaves; conditions: 50 μg/mL
Procedure: as §1

CCCC(C#N)C1NC(=O)C(C(C)=O)=C1O (centres unmarked) [Compound 38]
The t1/2 of fluorescence rise [1]: 0.871 s
effect in photosystem I (photosystem I): no effect
effect on Hill reaction (in words) (Hill reaction): can slow the Hill reaction
effect on electron transfer of photosystem II (in words) (photosystem II): inhibit the electron transfer of photosystem II

CC(=O)C1=C(O)C(C(C)C)NC1=O (centres unmarked) [Compound 39]
The t1/2 of fluorescence rise [1]: 0.884 s
effect in photosystem I (photosystem I): no effect
effect on Hill reaction (in words) (Hill reaction): can slow the Hill reaction
effect on electron transfer of photosystem II (in words) (photosystem II): inhibit the electron transfer of photosystem II

CCCC(Cl)C1NC(=O)C(C(C)=O)=C1O (centres unmarked) [Compound 40]
The t1/2 of fluorescence rise [1]: 0.72 s
effect in photosystem I (photosystem I): no effect
effect on Hill reaction (in words) (Hill reaction): can slow the Hill reaction
effect on electron transfer of photosystem II (in words) (photosystem II): inhibit the electron transfer of photosystem II

CSCCC1NC(=O)C(C(C)=O)=C1O (centres unmarked) [Compound 41]
The t1/2 of fluorescence rise [1]: 0.901 s
effect in photosystem I (photosystem I): no effect
effect on Hill reaction (in words) (Hill reaction): can slow the Hill reaction
effect on electron transfer of photosystem II (in words) (photosystem II): inhibit the electron transfer of photosystem II

CCC(C)C1NC(=O)C(C(=O)CCCl)=C1O (centres unmarked) [Compound 43]
The t1/2 of fluorescence rise [1]: 0.88 s
effect in photosystem I (photosystem I): no effect
effect on Hill reaction (in words) (Hill reaction): can slow the Hill reaction
effect on electron transfer of photosystem II (in words) (photosystem II): inhibit the electron transfer of photosystem II

CCC(C)C1NC(=O)C(C(=O)CCF)=C1O (centres unmarked) [Compound 44]
The t1/2 of fluorescence rise [1]: 0.839 s
effect in photosystem I (photosystem I): no effect
effect on Hill reaction (in words) (Hill reaction): can slow the Hill reaction
effect on electron transfer of photosystem II (in words) (photosystem II): inhibit the electron transfer of photosystem II

CCOCCC(=O)C1=C(O)C(C(C)CC)NC1=O (centres unmarked) [Compound 45]
The t1/2 of fluorescence rise [1]: 0.713 s
effect in photosystem I (photosystem I): no effect
effect on Hill reaction (in words) (Hill reaction): can slow the Hill reaction
effect on electron transfer of photosystem II (in words) (photosystem II): inhibit the electron transfer of photosystem II

CCC(C)C1NC(=O)C(C(=O)OCCc2ccccc2)=C1O (centres unmarked) [Compound 46]
The t1/2 of fluorescence rise [1]: 0.899 s
effect in photosystem I (photosystem I): no effect
effect on Hill reaction (in words) (Hill reaction): can slow the Hill reaction
effect on electron transfer of photosystem II (in words) (photosystem II): inhibit the electron transfer of photosystem II

CCC(C)C1NC(=O)C(C(=O)CCOc2ccccc2)=C1O (centres unmarked) [Compound 47]
The t1/2 of fluorescence rise [1]: 0.844 s
effect in photosystem I (photosystem I): no effect
effect on Hill reaction (in words) (Hill reaction): can slow the Hill reaction
effect on electron transfer of photosystem II (in words) (photosystem II): inhibit the electron transfer of photosystem II

CCC(C)C1NC(=O)C(C(=O)Cc2ccccc2)=C1O (centres unmarked) [Compound 51]
The t1/2 of fluorescence rise [1]: 0.798 s
effect in photosystem I (photosystem I): no effect
effect on Hill reaction (in words) (Hill reaction): can slow the Hill reaction
effect on electron transfer of photosystem II (in words) (photosystem II): inhibit the electron transfer of photosystem II

CCC(C)C1NC(=O)C(C(=O)Cc2ccc([N+](=O)[O-])cc2)=C1O (centres unmarked) [Compound 52]
The t1/2 of fluorescence rise [1]: 0.814 s
effect in photosystem I (photosystem I): no effect
effect on Hill reaction (in words) (Hill reaction): can slow the Hill reaction
effect on electron transfer of photosystem II (in words) (photosystem II): inhibit the electron transfer of photosystem II

CCCC(C#N)C1NC(=O)C(=C(C)O)C1=O (centres unmarked) [Compound 53]
The t1/2 of fluorescence rise [1]: 0.739 s
effect in photosystem I (photosystem I): no effect
effect on Hill reaction (in words) (Hill reaction): can slow the Hill reaction
effect on electron transfer of photosystem II (in words) (photosystem II): inhibit the electron transfer of photosystem II

CCCCCC(C#N)C1NC(=O)C(=C(C)O)C1=O (centres unmarked) [Compound 54]
The t1/2 of fluorescence rise [1]: 0.741 s
effect in photosystem I (photosystem I): no effect
effect on Hill reaction (in words) (Hill reaction): can slow the Hill reaction
effect on electron transfer of photosystem II (in words) (photosystem II): inhibit the electron transfer of photosystem II

CC(=O)C1C(=O)NC(C)C1=O (centres unmarked) [Compound 57]
The t1/2 of fluorescence rise [1]: 0.955 s
effect in photosystem I (photosystem I): no effect
effect on Hill reaction (in words) (Hill reaction): can slow the Hill reaction
effect on electron transfer of photosystem II (in words) (photosystem II): inhibit the electron transfer of photosystem II
